These are yes or no findings as the source states them, for the method shown. In cells and extracts the contact can be indirect. Some entries that bind do so weakly or less than the wild type.
Target: Krüppel-like factor 4 (KLF4) (mouse (endogenous in RAW264.7)) (UniProt Q60793)
Assay: co-IP; endogenous proteins in RAW264.7 lysates; extracts pre-cleared with Protein G beads, overnight with target antibodies on A/G-agarose beads at 4 °C, washed with lysis buffer, Western blot

Protein sequences, listed by entry. Tags and fused reporters are not part of them.
UniProt Q60793: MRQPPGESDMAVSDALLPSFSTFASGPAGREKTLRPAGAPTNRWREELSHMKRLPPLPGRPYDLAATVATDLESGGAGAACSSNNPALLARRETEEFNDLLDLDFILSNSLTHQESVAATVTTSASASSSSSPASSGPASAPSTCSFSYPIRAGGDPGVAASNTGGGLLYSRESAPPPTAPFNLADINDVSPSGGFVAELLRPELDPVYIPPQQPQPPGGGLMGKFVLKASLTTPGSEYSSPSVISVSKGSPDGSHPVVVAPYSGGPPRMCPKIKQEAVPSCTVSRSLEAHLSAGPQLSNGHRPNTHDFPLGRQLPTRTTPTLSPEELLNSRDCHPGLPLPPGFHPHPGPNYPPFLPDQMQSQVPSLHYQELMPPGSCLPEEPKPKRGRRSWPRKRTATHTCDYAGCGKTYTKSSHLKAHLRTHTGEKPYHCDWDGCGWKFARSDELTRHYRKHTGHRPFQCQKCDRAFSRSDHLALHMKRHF
UniProt P52479: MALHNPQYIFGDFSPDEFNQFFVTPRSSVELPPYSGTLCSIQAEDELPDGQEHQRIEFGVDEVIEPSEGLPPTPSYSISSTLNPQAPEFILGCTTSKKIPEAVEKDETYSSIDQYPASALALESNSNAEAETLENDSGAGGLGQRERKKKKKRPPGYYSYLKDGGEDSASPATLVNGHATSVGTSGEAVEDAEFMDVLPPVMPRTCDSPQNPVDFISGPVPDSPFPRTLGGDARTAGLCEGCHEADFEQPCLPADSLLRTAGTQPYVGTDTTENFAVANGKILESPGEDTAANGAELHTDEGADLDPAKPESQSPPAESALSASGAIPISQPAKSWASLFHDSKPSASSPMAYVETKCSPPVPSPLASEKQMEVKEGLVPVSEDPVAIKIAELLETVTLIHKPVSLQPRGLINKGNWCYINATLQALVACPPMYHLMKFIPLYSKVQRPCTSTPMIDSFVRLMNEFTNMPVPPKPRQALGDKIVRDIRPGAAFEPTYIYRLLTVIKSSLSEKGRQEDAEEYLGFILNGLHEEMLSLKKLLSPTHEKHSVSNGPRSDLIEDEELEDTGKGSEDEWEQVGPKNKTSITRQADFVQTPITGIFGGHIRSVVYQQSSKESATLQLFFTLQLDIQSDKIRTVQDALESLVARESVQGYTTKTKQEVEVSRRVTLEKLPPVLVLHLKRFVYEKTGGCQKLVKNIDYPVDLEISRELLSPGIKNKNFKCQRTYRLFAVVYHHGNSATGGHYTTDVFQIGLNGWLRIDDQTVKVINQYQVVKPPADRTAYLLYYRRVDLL

ubiquitin-specific peptidase 10 (USP10) (from UniProt P52479 1-792) (enzyme)
binding: binds

Source: paper PMC12380376
